No constants are given. Whether binding was seen depends on the method and setting. In cells and extracts the contact can be indirect.
Biological target: integrin β4 (human (endogenous in C45 CTOSs)) (UniProt P16144)
Experiment: co-IP; floating cultured C45 CTOSs lysed in TNE-T buffer (10 mM Tris-HCl pH 7.4, 1 mM EDTA, 150 mM NaCl, 1% Triton); lysate with antibodies at 4 °C overnight, protein G sepharose; Western blot

Sequences of proteins named here, by UniProt entry; tags and fusion partners are left off. Residues count along the entry.
UniProt P16144, residues 28-1822: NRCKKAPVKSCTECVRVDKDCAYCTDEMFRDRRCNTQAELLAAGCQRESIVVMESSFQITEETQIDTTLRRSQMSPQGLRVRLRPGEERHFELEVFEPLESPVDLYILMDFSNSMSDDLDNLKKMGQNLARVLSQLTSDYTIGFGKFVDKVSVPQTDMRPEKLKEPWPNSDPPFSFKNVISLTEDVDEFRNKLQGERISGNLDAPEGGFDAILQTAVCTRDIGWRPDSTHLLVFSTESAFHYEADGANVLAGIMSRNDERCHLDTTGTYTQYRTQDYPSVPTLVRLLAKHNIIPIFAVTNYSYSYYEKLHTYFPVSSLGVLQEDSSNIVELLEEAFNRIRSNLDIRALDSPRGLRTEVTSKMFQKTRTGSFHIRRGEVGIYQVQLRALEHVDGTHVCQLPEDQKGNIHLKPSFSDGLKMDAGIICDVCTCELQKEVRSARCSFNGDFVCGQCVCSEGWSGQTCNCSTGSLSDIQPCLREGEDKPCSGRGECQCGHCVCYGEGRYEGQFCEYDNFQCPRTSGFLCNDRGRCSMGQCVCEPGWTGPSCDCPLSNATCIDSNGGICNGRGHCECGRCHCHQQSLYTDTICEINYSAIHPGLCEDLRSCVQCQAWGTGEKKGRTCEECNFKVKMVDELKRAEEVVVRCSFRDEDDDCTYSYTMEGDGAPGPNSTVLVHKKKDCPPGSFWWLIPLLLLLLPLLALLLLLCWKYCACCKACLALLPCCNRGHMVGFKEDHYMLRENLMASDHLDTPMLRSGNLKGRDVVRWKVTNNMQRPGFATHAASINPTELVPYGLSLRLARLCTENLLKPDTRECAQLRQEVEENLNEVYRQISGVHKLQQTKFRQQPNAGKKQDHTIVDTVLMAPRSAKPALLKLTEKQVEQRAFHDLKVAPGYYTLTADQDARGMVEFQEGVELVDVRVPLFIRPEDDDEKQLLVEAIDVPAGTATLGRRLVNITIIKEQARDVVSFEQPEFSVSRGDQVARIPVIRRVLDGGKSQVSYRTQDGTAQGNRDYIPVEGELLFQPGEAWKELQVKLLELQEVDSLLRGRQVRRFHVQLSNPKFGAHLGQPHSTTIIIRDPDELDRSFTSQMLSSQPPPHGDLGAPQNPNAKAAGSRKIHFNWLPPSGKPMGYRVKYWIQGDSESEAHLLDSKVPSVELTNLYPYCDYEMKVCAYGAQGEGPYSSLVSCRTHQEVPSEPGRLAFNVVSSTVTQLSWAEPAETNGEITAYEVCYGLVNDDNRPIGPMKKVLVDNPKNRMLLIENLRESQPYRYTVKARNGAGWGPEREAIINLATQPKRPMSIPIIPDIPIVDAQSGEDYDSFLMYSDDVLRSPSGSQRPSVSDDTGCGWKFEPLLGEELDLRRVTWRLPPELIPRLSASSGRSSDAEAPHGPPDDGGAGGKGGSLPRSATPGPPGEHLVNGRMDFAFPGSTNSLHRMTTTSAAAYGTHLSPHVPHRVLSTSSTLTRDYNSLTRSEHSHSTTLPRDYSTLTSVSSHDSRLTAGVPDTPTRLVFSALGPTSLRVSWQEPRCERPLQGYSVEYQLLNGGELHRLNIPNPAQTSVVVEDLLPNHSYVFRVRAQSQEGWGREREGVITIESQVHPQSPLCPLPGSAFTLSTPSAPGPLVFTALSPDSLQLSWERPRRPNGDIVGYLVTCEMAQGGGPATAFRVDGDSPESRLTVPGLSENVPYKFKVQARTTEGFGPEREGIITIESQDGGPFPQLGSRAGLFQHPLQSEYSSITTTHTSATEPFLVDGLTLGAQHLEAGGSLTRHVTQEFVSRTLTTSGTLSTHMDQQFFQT
UniProt P06731, residues 35-685: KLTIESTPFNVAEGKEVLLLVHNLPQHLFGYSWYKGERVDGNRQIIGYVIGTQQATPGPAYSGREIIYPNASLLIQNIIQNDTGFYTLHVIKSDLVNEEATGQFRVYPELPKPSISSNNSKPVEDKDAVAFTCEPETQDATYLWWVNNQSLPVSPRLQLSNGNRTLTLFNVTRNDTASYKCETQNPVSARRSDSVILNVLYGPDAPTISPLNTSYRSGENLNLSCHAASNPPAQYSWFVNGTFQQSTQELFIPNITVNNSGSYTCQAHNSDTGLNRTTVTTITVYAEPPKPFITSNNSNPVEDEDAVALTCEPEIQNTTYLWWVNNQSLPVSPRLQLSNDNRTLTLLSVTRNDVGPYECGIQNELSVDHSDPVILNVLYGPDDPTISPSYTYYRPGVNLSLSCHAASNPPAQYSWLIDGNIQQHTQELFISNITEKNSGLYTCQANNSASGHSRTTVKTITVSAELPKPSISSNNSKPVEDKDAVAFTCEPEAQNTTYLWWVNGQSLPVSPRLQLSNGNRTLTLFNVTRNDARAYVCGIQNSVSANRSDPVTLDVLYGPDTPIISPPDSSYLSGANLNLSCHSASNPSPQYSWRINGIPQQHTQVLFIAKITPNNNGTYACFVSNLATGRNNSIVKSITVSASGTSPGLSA
UniProt P40199, residues 35-320: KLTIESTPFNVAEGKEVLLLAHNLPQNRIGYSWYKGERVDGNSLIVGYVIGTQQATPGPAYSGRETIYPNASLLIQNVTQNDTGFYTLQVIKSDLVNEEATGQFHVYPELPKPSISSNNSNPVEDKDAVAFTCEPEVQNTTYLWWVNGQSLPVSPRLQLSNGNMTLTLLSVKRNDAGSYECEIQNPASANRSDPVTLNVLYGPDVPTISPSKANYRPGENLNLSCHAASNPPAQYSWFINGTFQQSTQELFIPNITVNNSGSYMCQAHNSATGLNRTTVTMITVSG

Substance	binding
CEACAM5 (from UniProt P06731 35-685)	no binding
CEACAM6 (from UniProt P40199 35-320)	no binding

From paper PMC4838943
